{
  "sequences": {"note": "Amino acid sequences for entries named in this document (tags omitted).", "UniProt P34730": "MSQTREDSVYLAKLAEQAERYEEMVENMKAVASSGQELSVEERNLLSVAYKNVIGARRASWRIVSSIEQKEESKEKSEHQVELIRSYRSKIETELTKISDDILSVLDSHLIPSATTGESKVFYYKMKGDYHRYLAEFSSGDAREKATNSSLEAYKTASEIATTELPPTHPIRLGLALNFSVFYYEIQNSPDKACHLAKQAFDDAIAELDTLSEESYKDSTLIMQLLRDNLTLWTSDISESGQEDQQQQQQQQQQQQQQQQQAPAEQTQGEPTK", "UniProt P29311": "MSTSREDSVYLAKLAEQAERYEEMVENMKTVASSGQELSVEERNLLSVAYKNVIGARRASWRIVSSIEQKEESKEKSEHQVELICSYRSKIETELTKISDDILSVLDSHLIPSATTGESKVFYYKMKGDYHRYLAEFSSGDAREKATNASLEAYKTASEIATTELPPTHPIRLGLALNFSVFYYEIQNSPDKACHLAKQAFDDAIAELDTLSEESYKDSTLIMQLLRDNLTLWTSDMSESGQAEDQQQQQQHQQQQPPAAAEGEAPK"},
  "source": "paper PMC7910539",
  "target": "T1, 6xHis-tagged (Sc)Pma1, yeast plasma-membrane H+-ATPase (S. cerevisiae) (UniProt P05030)",
  "T1 sequence": "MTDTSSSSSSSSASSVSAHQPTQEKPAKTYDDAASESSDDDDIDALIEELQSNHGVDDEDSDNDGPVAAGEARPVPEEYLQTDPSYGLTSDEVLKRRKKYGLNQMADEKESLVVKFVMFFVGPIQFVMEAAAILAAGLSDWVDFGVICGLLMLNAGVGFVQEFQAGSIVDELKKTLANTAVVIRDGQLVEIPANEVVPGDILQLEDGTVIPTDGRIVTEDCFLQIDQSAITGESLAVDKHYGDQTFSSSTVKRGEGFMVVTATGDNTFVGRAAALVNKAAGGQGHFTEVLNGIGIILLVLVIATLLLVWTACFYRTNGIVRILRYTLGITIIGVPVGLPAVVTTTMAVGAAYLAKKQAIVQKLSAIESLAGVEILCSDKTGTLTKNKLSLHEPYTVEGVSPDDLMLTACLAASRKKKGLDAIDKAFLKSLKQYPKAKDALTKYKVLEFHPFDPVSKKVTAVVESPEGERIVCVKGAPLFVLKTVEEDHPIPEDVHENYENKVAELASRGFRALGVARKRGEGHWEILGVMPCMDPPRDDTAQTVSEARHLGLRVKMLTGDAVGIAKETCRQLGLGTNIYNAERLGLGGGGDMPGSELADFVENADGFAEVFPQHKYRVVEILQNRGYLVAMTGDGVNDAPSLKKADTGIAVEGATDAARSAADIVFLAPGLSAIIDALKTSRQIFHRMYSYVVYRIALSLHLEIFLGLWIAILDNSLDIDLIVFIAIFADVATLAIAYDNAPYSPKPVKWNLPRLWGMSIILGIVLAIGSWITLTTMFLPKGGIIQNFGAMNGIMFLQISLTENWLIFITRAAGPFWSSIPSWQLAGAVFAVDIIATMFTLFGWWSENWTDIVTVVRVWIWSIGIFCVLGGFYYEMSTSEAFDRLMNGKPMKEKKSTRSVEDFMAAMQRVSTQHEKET",
  "experiment": "pull-down; His-tagged H+-ATPase pulled down from yeast cell lysates with Dynabeads; cells grown on Gluc NH4+ then shifted to Gluc proline for 4 h; lysis buffer 50 mM Tris-HCl pH 7.2, 600 mM NaCl, 1% Nonidet P-40, 0.5% sodium deoxycholate; lysates and pulled-down fractions blotted with anti-14-3-3 and anti-polyhistidine",
  "note": "Results are given in words; binding and its absence hold for the method and conditions named. Binding seen in cells or lysates may run through a third protein. Where a sequence is shown, tags or fusion partners need not be part of it.",
  "data": [
    {"substance": "Bmh2, yeast 14-3-3 protein (from UniProt P34730 1-273)", "values": [
      {"measurement": "binding", "result": "no binding"}
    ]},
    {"substance": "Bmh1, yeast 14-3-3 protein (from UniProt P29311 1-267)", "values": [
      {"measurement": "binding", "result": "no binding"}
    ]}
  ]
}
